# Measured values taken from the supplement of paper PMC12067093, “Discovery and optimisation of a covalent ligand for TRIM25 and its application to targeted protein ubiquitination” (Chemical Science, 2025).
# Sequences of proteins named here, by UniProt entry; tags and fusion partners are left off. A change or cut given only in a name is not applied to a line headed by its entry.
# UniProt Q7Z6E9: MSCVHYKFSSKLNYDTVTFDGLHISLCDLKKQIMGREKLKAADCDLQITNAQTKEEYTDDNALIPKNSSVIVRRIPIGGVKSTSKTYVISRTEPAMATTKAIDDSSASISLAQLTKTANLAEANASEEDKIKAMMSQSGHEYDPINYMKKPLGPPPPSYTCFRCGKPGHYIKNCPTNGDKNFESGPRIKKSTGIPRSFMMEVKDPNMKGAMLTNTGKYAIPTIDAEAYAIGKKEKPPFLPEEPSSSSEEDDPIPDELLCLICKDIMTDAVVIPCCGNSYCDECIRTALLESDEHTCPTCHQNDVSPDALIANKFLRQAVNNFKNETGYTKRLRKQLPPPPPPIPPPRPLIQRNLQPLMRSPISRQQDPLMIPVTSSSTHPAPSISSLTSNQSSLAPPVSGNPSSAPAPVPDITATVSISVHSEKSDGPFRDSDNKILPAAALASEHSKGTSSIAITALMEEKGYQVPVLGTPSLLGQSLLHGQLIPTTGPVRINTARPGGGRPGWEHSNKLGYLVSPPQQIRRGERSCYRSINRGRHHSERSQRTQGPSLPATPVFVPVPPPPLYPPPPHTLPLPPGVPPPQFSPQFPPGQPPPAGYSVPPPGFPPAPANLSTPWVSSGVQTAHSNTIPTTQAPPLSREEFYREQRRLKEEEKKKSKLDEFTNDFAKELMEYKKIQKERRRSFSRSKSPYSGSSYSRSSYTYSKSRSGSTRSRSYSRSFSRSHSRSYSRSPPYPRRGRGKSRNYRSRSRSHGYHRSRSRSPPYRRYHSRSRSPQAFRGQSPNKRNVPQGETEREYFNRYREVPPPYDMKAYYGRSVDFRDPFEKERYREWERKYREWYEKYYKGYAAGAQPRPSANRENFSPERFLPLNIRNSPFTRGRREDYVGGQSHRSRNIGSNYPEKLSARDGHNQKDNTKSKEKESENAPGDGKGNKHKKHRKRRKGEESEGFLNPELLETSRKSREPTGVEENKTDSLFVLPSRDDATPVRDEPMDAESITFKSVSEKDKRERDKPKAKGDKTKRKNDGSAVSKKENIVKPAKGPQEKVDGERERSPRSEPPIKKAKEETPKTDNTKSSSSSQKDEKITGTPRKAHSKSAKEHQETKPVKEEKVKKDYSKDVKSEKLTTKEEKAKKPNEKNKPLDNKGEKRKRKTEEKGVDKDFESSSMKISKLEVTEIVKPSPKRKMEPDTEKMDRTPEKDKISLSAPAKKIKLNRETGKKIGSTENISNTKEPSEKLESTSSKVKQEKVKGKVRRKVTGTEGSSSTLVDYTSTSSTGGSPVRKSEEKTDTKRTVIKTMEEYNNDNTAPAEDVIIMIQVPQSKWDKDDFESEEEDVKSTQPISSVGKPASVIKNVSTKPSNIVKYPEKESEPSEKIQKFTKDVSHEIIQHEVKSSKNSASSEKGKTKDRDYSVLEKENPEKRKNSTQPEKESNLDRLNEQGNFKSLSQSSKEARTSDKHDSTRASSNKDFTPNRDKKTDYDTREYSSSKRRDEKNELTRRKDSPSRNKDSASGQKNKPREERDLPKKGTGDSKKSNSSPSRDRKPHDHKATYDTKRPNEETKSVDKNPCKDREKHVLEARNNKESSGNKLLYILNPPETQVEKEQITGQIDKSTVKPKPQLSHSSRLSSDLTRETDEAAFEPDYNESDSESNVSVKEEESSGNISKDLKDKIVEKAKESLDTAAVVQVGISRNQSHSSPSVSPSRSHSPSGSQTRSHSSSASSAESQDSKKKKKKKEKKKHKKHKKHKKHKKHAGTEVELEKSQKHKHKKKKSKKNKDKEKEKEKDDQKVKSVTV
# UniProt Q06330: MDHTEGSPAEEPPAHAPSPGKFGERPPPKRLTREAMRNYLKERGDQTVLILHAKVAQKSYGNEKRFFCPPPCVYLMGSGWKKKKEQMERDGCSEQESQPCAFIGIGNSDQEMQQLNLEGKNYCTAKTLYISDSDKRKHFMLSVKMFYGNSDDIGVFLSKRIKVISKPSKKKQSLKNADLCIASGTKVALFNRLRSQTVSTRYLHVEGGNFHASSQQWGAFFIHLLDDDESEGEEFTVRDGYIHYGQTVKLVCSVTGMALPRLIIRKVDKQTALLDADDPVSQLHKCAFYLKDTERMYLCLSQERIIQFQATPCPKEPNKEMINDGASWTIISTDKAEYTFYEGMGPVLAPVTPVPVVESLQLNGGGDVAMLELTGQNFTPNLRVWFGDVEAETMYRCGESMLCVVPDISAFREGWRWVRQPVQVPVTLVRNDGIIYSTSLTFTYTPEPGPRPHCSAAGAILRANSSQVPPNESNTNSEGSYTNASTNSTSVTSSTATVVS
# UniProt Q9NW64: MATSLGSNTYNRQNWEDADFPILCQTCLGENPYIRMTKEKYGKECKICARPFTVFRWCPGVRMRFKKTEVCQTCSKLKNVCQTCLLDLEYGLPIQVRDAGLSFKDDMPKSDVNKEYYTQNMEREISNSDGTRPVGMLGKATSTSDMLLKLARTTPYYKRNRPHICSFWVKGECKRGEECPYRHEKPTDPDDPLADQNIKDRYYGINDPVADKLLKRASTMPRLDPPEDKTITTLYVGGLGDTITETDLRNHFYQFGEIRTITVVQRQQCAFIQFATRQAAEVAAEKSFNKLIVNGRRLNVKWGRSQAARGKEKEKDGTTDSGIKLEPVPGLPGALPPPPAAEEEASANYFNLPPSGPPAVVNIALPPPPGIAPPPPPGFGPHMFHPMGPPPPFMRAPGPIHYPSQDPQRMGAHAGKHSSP
# UniProt Q96PM5: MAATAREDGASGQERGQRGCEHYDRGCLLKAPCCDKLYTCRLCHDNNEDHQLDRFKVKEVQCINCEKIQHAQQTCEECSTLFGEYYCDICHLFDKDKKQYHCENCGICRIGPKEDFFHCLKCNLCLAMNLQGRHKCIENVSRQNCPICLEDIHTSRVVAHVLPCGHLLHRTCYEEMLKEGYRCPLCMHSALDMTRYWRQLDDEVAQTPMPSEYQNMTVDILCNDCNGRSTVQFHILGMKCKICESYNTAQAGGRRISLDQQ
# UniProt Q9P0K7: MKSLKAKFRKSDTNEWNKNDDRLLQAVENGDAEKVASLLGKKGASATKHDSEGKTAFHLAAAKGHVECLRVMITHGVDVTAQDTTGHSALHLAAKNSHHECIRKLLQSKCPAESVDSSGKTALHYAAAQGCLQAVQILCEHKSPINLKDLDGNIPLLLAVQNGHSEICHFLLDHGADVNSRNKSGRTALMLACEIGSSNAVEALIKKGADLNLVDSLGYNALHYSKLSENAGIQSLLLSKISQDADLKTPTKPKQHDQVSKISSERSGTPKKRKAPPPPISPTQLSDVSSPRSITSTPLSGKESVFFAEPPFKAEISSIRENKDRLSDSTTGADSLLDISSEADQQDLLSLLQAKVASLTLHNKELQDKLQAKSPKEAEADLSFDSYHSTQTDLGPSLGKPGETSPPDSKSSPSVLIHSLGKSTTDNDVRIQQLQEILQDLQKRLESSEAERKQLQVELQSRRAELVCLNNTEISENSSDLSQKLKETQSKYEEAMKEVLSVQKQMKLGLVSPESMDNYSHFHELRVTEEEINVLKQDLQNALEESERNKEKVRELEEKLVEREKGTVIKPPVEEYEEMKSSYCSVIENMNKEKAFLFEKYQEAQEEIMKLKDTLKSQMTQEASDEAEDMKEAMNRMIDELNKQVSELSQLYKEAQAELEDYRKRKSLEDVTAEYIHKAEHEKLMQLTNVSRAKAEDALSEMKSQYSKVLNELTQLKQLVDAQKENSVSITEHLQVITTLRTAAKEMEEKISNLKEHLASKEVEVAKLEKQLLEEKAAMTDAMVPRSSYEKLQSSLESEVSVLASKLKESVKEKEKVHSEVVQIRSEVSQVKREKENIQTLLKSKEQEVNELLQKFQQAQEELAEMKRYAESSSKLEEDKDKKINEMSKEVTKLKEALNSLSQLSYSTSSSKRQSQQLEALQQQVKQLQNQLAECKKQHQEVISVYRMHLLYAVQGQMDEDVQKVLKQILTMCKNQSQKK
# UniProt Q9BYM8: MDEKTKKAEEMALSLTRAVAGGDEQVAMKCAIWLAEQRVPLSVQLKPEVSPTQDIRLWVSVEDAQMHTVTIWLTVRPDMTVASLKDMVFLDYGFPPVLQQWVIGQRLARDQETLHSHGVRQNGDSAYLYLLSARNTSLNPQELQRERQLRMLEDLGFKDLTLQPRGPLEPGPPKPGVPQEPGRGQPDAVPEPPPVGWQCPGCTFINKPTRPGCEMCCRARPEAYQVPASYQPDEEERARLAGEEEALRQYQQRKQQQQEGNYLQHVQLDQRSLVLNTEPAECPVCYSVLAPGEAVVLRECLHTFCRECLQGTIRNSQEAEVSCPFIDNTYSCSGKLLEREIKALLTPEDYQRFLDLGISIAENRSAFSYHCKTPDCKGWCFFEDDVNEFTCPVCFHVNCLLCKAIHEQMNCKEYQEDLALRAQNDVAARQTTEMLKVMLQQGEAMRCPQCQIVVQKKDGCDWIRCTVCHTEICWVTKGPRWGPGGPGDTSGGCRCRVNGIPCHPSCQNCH
# UniProt P78332: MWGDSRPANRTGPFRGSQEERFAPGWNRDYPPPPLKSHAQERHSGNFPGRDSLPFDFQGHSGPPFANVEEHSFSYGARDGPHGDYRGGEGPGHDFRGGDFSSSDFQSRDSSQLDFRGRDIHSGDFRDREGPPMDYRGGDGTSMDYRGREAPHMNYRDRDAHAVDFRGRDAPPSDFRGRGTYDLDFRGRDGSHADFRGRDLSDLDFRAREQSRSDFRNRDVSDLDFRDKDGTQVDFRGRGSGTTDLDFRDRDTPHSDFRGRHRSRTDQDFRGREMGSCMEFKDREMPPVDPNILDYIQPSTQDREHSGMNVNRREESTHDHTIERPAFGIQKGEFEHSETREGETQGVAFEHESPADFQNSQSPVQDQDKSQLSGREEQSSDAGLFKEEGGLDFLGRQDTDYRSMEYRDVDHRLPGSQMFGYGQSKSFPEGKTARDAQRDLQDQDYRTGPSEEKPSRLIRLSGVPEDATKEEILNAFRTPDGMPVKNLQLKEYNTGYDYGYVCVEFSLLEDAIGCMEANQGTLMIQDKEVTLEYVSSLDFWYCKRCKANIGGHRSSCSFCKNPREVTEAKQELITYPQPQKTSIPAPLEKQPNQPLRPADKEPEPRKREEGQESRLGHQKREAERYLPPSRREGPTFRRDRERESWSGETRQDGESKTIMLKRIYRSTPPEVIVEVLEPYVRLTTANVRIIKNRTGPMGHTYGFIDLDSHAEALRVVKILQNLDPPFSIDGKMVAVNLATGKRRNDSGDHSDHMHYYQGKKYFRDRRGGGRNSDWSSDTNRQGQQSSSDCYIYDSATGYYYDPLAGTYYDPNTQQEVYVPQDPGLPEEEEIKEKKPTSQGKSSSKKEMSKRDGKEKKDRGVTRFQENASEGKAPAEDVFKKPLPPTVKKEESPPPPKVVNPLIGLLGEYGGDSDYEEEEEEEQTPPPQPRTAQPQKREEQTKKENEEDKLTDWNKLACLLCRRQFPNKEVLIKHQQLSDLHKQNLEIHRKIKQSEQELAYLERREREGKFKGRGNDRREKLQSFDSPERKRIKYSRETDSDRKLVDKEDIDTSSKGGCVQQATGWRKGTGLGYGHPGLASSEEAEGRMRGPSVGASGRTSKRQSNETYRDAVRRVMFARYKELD
# UniProt P78406: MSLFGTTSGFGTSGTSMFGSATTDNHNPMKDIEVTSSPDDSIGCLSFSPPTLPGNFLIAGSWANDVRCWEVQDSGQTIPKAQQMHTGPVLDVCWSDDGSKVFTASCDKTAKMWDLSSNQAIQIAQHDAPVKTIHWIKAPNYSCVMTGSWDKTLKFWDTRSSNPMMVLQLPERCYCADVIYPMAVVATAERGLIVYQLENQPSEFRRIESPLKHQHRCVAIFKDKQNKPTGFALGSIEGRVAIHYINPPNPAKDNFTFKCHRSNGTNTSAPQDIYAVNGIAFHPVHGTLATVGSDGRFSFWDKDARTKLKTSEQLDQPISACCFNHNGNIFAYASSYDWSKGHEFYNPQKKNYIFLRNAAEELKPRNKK
# UniProt P46060: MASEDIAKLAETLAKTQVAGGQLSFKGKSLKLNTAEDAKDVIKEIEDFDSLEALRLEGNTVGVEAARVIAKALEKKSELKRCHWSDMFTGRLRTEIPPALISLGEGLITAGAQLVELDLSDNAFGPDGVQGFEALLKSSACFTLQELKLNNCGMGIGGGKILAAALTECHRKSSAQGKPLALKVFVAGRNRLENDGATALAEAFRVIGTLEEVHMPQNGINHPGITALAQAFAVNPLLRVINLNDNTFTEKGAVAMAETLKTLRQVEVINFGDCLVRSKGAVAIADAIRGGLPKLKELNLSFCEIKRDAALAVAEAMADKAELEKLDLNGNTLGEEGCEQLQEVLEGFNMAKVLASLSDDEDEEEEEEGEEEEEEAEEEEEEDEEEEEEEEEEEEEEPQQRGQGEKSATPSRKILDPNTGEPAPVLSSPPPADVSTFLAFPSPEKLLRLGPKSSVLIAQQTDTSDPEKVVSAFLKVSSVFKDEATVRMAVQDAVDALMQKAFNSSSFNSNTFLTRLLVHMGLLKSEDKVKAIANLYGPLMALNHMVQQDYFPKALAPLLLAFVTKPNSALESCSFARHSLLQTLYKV
# Some of the results follow.
# Compound: CC1Cc2ccccc2N1C(=O)C1CCCN(C1)C(=O)CCl (mixture of isomers) [TRIM25 ligand 11 (diastereomer mixture)]
# Assay: probe-labelled cysteine peptide fold change vs DMSO (competition) (log2 fold change); higher = less target engagement (more negative = stronger competition)
# Settings: THP-1, incubation time: 4 h
# 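Also: competitive chemoproteomic profiling in live THP-1 cells with an iodoacetamide desthiobiotin (IA-DTB) probe, comparing probe-labelled peptide intensities in compound-treated cells against DMSO-treated controls.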
Target,probe-labelled cysteine peptide fold change (10 µM),probe-labelled cysteine peptide fold change (50 µM)
RBBP6_Q7Z6E9_296+299_TALLESDEHTCPTCHQNDVSPDALIANK (UniProt Q7Z6E9),-0.204,-0.218
RCC2_Q9P258_158_TVVSGSCAAHSLLITTEGK (UniProt Q9P258),0.088,0.107
RAP1GDS1_P52306_454_LVEWCEAK (UniProt P52306),0.0696,-0.0124
RBPJ_Q06330_180_NADLCIASGTK (UniProt Q06330),-0.0912,-0.204
RBM22_Q9NW64_71_KTEVCQTCSK (UniProt Q9NW64),-0.0297,0.054
RCC1_P18754_81_KKPALVSIPEDVVQAEAGGMHTVCLSK (UniProt P18754),-0.0603,0.0589
RAI1_Q7Z5J4_828_EEAGGLLQCPEVAK (UniProt Q7Z5J4),-0.0134,-0.248
RCHY1_Q96PM5_183+186_CPLCMHSALDMTR (UniProt Q96PM5),-0.0447,0.0148
RAI14_Q9P0K7_101_NSHHECIR (UniProt Q9P0K7),0.23,0.0866
RBCK1_Q9BYM8_323_NSQEAEVSCPFIDNTYSCSGK (UniProt Q9BYM8),-0.0569,0.0193
RAP1GDS1_P52306_117_ALGNICYDSHEGR (UniProt P52306),-0.092,-0.0739
RAD54L2_Q9Y4B4_618_AFCVCCK (UniProt Q9Y4B4),-0.00704,0.0823
RANBP2_P49792_707_KAEDIENDALSPEEQEECK (UniProt P49792),0.147,0.111
RBM6_P78332_957+960_LACLLCR (UniProt P78332),-0.247,-0.133
RANBP2_P49792_3221_ITITECGQI (UniProt P49792),-0.127,0.249
RAD9A_Q99638_129+141_THNLSFQDCESLQAVFDPASCPHMLR (UniProt Q99638),-0.111,-0.225
RAE1_P78406_93_AQQMHTGPVLDVCWSDDGSK (UniProt P78406),-0.137,-0.21
RBL1_P28749_1047_VCQENDDVLLK (UniProt P28749),0.0885,-0.114
RANGAP1_P46060_82_RCHWSDMFTGR (UniProt P46060),0.0798,-0.0723
RANBP2_P49792_1196_TGEEDEEEFFCNR (UniProt P49792),-0.113,0.219
RAN_P62826_112+120_VCENIPIVLCGNK (UniProt P62826),-0.0208,-0.109

# Shown bar-delimited: entries from further up.
Target | probe-labelled cysteine peptide fold change (10 µM) | probe-labelled cysteine peptide fold change (50 µM)
RAP1GDS1_P52306_454_LVEWCEAK (UniProt P52306) | 0.0696 | -0.0124
RCHY1_Q96PM5_183+186_CPLCMHSALDMTR (UniProt Q96PM5) | -0.0447 | 0.0148
RAI14_Q9P0K7_101_NSHHECIR (UniProt Q9P0K7) | 0.23 | 0.0866
RBCK1_Q9BYM8_323_NSQEAEVSCPFIDNTYSCSGK (UniProt Q9BYM8) | -0.0569 | 0.0193
RAP1GDS1_P52306_117_ALGNICYDSHEGR (UniProt P52306) | -0.092 | -0.0739
RBM6_P78332_957+960_LACLLCR (UniProt P78332) | -0.247 | -0.133
RAE1_P78406_93_AQQMHTGPVLDVCWSDDGSK (UniProt P78406) | -0.137 | -0.21
RAN_P62826_112+120_VCENIPIVLCGNK (UniProt P62826) | -0.0208 | -0.109

# Later entries:

Target,probe-labelled cysteine peptide fold change (10 µM),probe-labelled cysteine peptide fold change (50 µM)
RCHY1_Q96PM5_90_IQHAQQTCEECSTLFGEYYCDICHLFDK (UniProt Q96PM5),0.0425,0.109
RB1CC1_Q8TDY2_282_ESCQSTVHQQDETTIDTK (UniProt Q8TDY2),-0.0787,-0.311
RBM5_P52756_187_FEDWLCNK (UniProt P52756),-0.112,-0.0495
RARS_P54136_293_AYQCVVLLQGK (UniProt P54136),0.107,0.0772
RARS_P54136_115_FGDYQCNSAMGISQMLK (UniProt P54136),-0.133,-0.235
RASAL3_Q86YV0_447_LCGALEPALPAQAK (UniProt Q86YV0),0.119,0.0549
RANBP10_Q6VN20_100_ATHPIPAACGIYYFEVK (UniProt Q6VN20),0.0789,0.217
RANBP9_Q96S59_594_HDHEMEDCDTEMEVDSSQLR (UniProt Q96S59),-0.237,-0.367
RBMXL1_Q96E39_338_SDLYSSCDR (UniProt Q96E39),0.124,-0.216
RBPJ_Q06330_286_CAFYLK (UniProt Q06330),-0.0671,0.115
RASA1_P20936_1002_DLAALHEICVAHSDELR (UniProt P20936),-0.134,-0.0496
RBPJ_Q06330_313_IIQFQATPCPK (UniProt Q06330),0.0851,0.0536
RBM14_Q96PK6_90_IFVGNVSAACTSQELR (UniProt Q96PK6),0.0687,-0.0383
RC3H1_Q5TC82_143_KLVTLVHCQLVEEEGR (UniProt Q5TC82),-0.261,-0.0517
RB1_P06400_278_IIEVLCK (UniProt P06400),-0.0615,0.0476
RBM28_Q9NW13_490_LCLHNLPK (UniProt Q9NW13),0.0314,0.0289
RANGAP1_P46060_169_ILAAALTECHR (UniProt P46060),-0.0272,-0.0338
RCHY1_Q96PM5_105_QYHCENCGICR (UniProt Q96PM5),0.0544,-0.0674
RBBP6_Q7Z6E9_27_LNYDTVTFDGLHISLCDLKK (UniProt Q7Z6E9),-0.13,0.0107
RBBP4_Q09028_138_YMPQNPCIIATK (UniProt Q09028),-0.0727,-0.0279
RBM22_Q9NW64_27_QNWEDADFPILCQTCLGENPYIR (UniProt Q9NW64),0.273,0.0434
